These results are taken from paper PMC5909903, “Impact of selected amino acids of HP0377 (Helicobacter pylori thiol oxidoreductase) on its functioning as a CcmG (cytochrome c maturation) protein and Dsb (disulfide bond) isomerase” (PLoS ONE, 2018).

No constants are given. Whether binding was seen depends on the method and setting. Tags and fused reporters may be left off the sequences shown.

This assay addresses HP0377 (Helicobacter pylori thiol oxidoreductase), amino acids 25-221, His6 fusion (Helicobacter pylori strain 26695) (UniProt O25140). Kind of assay: SEC; HP0377 alone on ENrich SEC70 column, calibrated with gel filtration standards; both purified. On the technique in general: In gel filtration, larger molecules generally elute earlier.

B1: HP0377 (Helicobacter pylori thiol oxidoreductase), amino acids 25-221, His6 fusion (enzyme, UniProt O25140 25-221)
chain: CKSNNKDKLDENLLSSGSQSSKELNDERDNIDKKSYAGLEDVFSDNKSISPNDKYMLLVFGRNGCSYCERFKKDLKNVKELRDYIKEHFSAYYVNISYSKEHDFKVGDKNNEKEIKMSTEELAQIYAVQSTPTIVLSDKTGKTIYELPGYMPSTQFLAVLEFIGDGKYQDTKDDEDLTKKLKAYIKYKTNLSKSKSN
With B1, the binding result is recorded as “no binding”.
